The name of at least one read-out is uncertain.
Test system: Chinese hamster ovary (CHO) cells
Test: Protein translation assay (puromycin labelling, CHO cells)
Format: cell-based
Conditions: CHO cells stressed with 300 nM Tg, 1 μM compound; media alone = 100%, Tg alone = 0%
Description: Chinese hamster ovary (CHO) cells were maintained at 37° C. and 5% CO2 in Dulbecco's Modified Eagle's Media (DMEM) supplemented with 10% fetal bovine serum, 2 mM L-glutamine, 100 U/ml penicillin, and 100 μg/ml streptomycin. After reaching 80% of confluence, cells were detached and seeded on 6 well plates in complete media, allowed to recover overnight and treated for 2 hours with 1 μM of the test compound (to assess protein synthesis levels in unstressed condition), or for 1 hour with 100 nM or 1 μM of the test compound and then co-treated with 300 nM Tg and 100 nM or 1 μM of the test compound (to assess the recovery of protein synthesis in a stressed condition). Cells treated with Tg alone were used as controls.
After the 2 hours treatments, media were replaced by adding 10 μg/ml puromycin (Sigma Aldrich #P8833) in complete media for 30 min. Media were removed and cells were lysed with SDS-PAGE lysis buffer. Lysates were transferred to 1.5 ml tubes and sonicated for 3 min and total protein amount were quantified using BCA Protein Assay Kit (Pierce). Equal amount of protein (30 μg) was loaded on SDS-PAGE gels. […]
Puromycin (12D10) (Merck #MABE343) and β-actin (Sigma Aldrich #A5441) antibodies were used as primary antibody. […] Quantification of protein bands was done by densitometry using ImageJ software. […]

With O=C(COc1ccc(Cl)c(F)c1)NC1CCN(NC(=O)C2CNc3cc(Cl)ccc3O2)CC1 (centres unmarked) [Compound 31, 6-chloro-N-(4-(2-(4-chloro-3-fluorophenoxy)acetamido)piperidin-1-yl)-3,4-dihydro-2H-benzo[b][1,4]oxazine-2-carboxamide] the “% Recovery of protein expression (1 μM test compound)” value was 146.2%.
O=C(COc1ccc(Cl)c(F)c1)NC1CCN(NC(=O)[C@@H]2CNc3cc(Cl)ccc3O2)CC1 [Compound 47, (S)-6-chloro-N-(4-(2-(4-chloro-3-fluorophenoxy)acetamido)piperidin-1-yl)-3,4-dihydro-2H-benzo[b][1,4]oxazine-2-carboxamide] was tested, and the “% Recovery of protein expression (1 μM test compound)” value was 46.7%.

— US11166942B2 (PRAXIS BIOTECH LLC, priority 2018, dated 2021)
